# Results published in PubChem BioAssay AID1347423 (Functional Genomics Laboratory (NCATS/FGL), 2020).
# In all, about 52,000 sequences went through this assay and about 210 (0.4%) were called active.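 Rule for the calls: active = gene whose silencing raises cell survival under the drug, median off-target-corrected z-score across its silencing RNAs 2 or more; inactive = the rest.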 Some of the results follow.
# Experiment: Resistance to Poly (ADP-Ribose) Polymerase inhibitor: Gene Identification via Genome-wide siRNA Screen
# Conditions: mouse BRCA2 R2336H ES cells, olaparib, CellTiter-Glo viability; hits give high values
# Method in brief: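 Genome-wide siRNA screen (3 siRNAs/gene, 20 nM) in mouse ES cells carrying hypomorphic BRCA2 R2336H; olaparib 500 nM added 48 h post-transfection, CellTiter-Glo viability 72 h later. Normalized to plate-median negative control; MAD z-scores, gene median, seed-adjusted.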
row,Sequence,z-score
1,GAUGAAUACAUGGAGUCUCTT against C1qtnf3,inactive: 0.788
2,GGAGGUAAAGGAAAACUCUTT against Fmo1,inactive: -1.2
3,GCUGCUGUCCUAAACUUUCTT against BC056474,inactive: -0.669
4,GCCAUGUUUCUGAGAACUUTT against Slc27a3,inactive: -0.738
5,GGGAAAGAUAAGCUCAAGGTT against Sh2d2a,inactive: 1.58
6,GGACAAAGAAUUUCAACAATT against Gsg1,inactive: 1.14
7,CGGGCUGAAUGUGUUUGUGTT against E130304D01,inactive: 0.71
8,GCAACUGUGAACCAGUUGUTT against F730014I05Rik,inactive: 0.631
9,GCCUGCAUAUGAAACAGUATT against 2410066E13Rik,inactive: -0.543
10,GCUAAAUUCUUUCCUGAAGTT against Rdx,inactive: -0.0169
11,GCUGUCCACUGCUUAAAUCTT against Isyna1,inactive: 0.392
12,GCCAAUCAAAUCAACCAUATT against Ddx26,inactive: 1.1
13,CGUACUCUUUCUUUAAUCCTT against Umod,inactive: -0.057
14,GCGGACAUGAGUUUGAAUGTT against Bnipl,inactive: 0.816
15,CGACCUGUGGGUUAACCCATT against DXBwg1396e,inactive: 0.18
16,GGAUGAGAUGGGAAUUGUATT against Otor,inactive: -1.1
17,GGGAGAACACAAACAGAAATT against Dab1,inactive: 3.81
18,CCAAAACUUCCUGUGGUUCTT against 4930538D17Rik,inactive: -0.932
19,CCUGCUUCGAAAGAUCUCCTT against Serpina10,inactive: 0.167
20,GGCUCUGAAAGAGCUAAAATT against 2810002D13Rik,inactive: 1.21
21,AUGAAAACCAUUCCCAAUUTT against Olfr435,inactive: 3.18
22,CGGCCACUAUAUGACAUUATT against Upk3b,inactive: -0.0137
23,GGCAUUCAGAAAUCCAGUATT against Zdhhc2,inactive: -0.452

row,Sequence,z-score
1,GGAUAGCAACCAGUUUCAUTT against Mvd,inactive: 0.127
2,GCUCUGUCUUAAGAGACUATT against Smo,inactive: 0.338
3,CCUAAGUUAUUGUUAACUGTT against Gata2,inactive: 0.507
4,GCUACGUUAAAAGCAAUAATT against A230078I01Rik,inactive: -0.101
5,GCAUAGUCAAGGUCAGAUCTT against AI790205,inactive: 0.656
6,GGUUGUCCGGAUUGCUUGUTT against Olfr734,inactive: -3.02
7,GGAGAUUAACCCACAAACUTT against Rps6ka3,inactive: 1.68
8,CGAAGUCUAGCAGAACUCUTT against Kcne1l,inactive: -0.928
9,GCAUCAACUCCUGAGCUCUTT against Stra13,inactive: -1.64
10,CCAAGUGGAUCCCGCUUGUTT against Rhot2,inactive: 0.871
11,GGUGUAUUGAGCUAAACAUTT against B830028P19Rik,inactive: 1.07
12,CCCAUUCUGUAUAUAGUGCTT against Adam6,inactive: 0.77
13,GGGCUCUGAAUUGAAGAAATT against Ralgps2,inactive: -1.58
14,GGUCACCAAGCAACACAAUTT against Fen1,inactive: 0.939
15,GGAGAAACCUAAAGACAUATT against Mocs2,inactive: -1.29
16,GGGAUCUUUCCAGAGUUUGTT against Prp15,inactive: 1.45
17,GGAAAGCUAAGGCUGUACUTT against 1700010H15Rik,inactive: -1.59
18,CCUUGUCUGGCAACAUCGATT against Cpt1c,inactive: 0.33
19,GGAGCACAGUUUUGGUGCUTT against Olfr576,inactive: 4.43
20,GGUGGAUCCAGACCAAGUCTT against Cecr5,inactive: -1.89
21,GGGUCCAUUCUGAGAACAATT against Pftk1,inactive: -1.32
22,GGAGAACAAGUUGUCUGUCTT against Olfr118,inactive: -2.68
23,GGAAGAAGCAGCAAGAAGATT against 9130422G05Rik,inactive: 0.938

# Shown with tabs: entries from further up.
row	Sequence	z-score
17	GGAAAGCUAAGGCUGUACUTT against 1700010H15Rik	inactive: -1.59
18	CCUUGUCUGGCAACAUCGATT against Cpt1c	inactive: 0.33

# (listing goes on)

row,Sequence,z-score
1,GCUAAGUUGCUUUUCAGUGTT against Hist1h4i,inactive: -0.0874
2,CGUAUAACUAAUGAUGCCATT against Snap23,inactive: 0.621
3,GGUUCUACUCUAUCAAGGATT against Cias1,inactive: 1.03
4,GCGAUCUAGUUUCAUUAAATT against Prp19,inactive: -1.52
5,UGUCUGGAAACCAACAAGGTT against Prb1,inactive: -1.8
6,GCAUCUACCUAUAAUGAAUTT against 1700020O03Rik,inactive: 1.39
7,CCUCAUCCAACAUACCUAUTT against Olfr665,inactive: 2.27
8,GGAAGGAGAACAUUCCUUUTT against Ces3,inactive: -0.132
9,CGGUGAUAACUUCAAGACGTT against Rbp2,inactive: 0.434
10,GGAUUCACUAGCAUUGUAGTT against Guca1b,inactive: -2.13
11,GCCAGUUCACCUGAUCUUATT against 2610507B11Rik,inactive: -0.193
12,GGUUAAAAGAGGAGAUGUUTT against Ttc1,inactive: -2.69
13,GGGCCUAGUAACUAUCAAGTT against 9930016F01Rik,inactive: 0.368
14,GGCUUUUCAAUAUAGUUCCTT against Reg3a,inactive: -0.737
15,GGGUGAAAAUUCUUACUUGTT against 4930584N22Rik,inactive: -0.138
16,GCCUAUAAGCCUAAUGAAATT against Rnf133,inactive: 1.95
17,GCACCUGAUUAAGUUGCAUTT against Pcqap,inactive: -0.728
18,GGGACCAUUCUGAAGAUGATT against Bach,inactive: -0.44
19,GGAAUCCUCUGAAUAACCUTT against V1rd9,inactive: 1.32
20,GGACAGAAUACGUGAGGAGTT against 5-Sep,inactive: -0.852
21,GGAACAAGGAAGUUAAGGATT against Olfr1044,inactive: 0.589

# A second format for some results above.
row	Sequence	z-score
9	CGGUGAUAACUUCAAGACGTT against Rbp2	inactive: 0.434
10	GGAUUCACUAGCAUUGUAGTT against Guca1b	inactive: -2.13
11	GCCAGUUCACCUGAUCUUATT against 2610507B11Rik	inactive: -0.193
12	GGUUAAAAGAGGAGAUGUUTT against Ttc1	inactive: -2.69
